Experimental data reported in the supplement of paper PMC10849652.
This is one part of the list.

Amino acid sequences for entries named in this document (tags omitted). A change or cut given only in a name is not applied to a line headed by its entry.
UniProt Q8NHY2, whole entry, looked up: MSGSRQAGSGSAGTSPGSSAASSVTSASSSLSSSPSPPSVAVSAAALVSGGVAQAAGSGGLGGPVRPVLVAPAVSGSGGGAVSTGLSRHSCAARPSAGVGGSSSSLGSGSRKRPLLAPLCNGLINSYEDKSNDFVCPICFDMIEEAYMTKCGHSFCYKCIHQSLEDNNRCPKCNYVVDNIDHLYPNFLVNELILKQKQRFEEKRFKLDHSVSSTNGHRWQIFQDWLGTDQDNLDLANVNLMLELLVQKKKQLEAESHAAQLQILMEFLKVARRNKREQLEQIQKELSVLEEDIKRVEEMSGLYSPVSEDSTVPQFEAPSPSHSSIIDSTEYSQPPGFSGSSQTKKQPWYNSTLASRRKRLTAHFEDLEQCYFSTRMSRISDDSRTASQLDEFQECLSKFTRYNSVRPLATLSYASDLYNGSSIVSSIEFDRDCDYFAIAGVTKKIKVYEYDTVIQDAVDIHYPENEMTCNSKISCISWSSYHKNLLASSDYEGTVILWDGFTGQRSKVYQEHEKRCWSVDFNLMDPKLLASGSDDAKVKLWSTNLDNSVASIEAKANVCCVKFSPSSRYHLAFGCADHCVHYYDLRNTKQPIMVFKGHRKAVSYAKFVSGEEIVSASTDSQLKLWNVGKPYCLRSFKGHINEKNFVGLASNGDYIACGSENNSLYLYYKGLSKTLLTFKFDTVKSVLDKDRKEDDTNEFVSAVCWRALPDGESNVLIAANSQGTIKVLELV
UniProt P78368: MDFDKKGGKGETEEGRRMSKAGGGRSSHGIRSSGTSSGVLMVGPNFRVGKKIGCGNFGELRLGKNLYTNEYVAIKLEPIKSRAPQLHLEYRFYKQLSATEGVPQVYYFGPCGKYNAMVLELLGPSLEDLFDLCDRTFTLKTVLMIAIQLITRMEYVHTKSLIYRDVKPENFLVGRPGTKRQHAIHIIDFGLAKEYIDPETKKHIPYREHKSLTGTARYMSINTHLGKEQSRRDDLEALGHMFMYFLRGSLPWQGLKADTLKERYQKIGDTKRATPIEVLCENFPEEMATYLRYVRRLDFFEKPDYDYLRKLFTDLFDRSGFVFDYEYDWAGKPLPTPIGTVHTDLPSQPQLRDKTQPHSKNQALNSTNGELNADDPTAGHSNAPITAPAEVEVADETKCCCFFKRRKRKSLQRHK
UniProt Q6QEF8, whole entry, looked up: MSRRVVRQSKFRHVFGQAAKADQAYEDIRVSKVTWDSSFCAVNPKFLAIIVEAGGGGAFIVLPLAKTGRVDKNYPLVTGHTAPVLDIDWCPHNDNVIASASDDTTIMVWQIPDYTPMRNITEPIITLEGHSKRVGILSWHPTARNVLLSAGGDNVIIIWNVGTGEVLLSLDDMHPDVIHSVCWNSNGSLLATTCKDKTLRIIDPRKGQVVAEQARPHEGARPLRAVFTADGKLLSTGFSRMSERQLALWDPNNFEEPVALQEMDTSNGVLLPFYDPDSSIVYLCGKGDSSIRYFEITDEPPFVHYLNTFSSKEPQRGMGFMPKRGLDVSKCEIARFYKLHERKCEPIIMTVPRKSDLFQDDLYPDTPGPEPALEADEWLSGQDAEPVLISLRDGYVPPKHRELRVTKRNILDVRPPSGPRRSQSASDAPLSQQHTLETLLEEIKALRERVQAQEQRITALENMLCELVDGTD
UniProt P15169: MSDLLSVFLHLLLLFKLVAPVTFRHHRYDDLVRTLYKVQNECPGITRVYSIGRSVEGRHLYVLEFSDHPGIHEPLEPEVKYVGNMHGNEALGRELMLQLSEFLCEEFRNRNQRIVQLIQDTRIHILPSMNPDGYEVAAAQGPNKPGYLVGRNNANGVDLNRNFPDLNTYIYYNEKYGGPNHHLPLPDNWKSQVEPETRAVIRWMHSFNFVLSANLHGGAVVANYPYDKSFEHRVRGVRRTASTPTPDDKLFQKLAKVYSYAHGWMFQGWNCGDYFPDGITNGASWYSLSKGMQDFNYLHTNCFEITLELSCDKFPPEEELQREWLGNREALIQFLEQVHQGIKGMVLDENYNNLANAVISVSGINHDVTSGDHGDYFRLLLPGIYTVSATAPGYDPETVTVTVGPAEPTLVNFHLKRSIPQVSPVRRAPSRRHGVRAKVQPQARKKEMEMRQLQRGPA
UniProt P48729: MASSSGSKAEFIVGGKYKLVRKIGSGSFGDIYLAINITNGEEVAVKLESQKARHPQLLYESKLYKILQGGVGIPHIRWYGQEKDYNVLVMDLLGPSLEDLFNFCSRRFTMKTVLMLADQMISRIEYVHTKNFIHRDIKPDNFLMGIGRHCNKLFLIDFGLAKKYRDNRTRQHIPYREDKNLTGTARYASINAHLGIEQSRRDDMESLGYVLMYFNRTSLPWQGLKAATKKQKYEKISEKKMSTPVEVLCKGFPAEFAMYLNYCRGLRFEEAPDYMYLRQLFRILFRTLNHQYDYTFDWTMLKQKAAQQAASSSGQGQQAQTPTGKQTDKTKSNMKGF
UniProt Q9HCP0: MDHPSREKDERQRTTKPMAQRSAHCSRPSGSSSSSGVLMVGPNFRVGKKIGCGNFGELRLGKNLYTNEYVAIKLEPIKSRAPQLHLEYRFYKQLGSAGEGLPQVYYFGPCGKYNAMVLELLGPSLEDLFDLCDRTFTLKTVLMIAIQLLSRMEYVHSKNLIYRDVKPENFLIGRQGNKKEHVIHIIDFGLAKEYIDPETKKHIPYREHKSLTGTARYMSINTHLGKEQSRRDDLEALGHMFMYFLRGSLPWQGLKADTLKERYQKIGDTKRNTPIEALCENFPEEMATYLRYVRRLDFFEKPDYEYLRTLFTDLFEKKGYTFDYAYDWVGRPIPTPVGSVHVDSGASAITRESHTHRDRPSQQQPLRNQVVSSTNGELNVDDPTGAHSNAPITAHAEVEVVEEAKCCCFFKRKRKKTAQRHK
UniProt P54108: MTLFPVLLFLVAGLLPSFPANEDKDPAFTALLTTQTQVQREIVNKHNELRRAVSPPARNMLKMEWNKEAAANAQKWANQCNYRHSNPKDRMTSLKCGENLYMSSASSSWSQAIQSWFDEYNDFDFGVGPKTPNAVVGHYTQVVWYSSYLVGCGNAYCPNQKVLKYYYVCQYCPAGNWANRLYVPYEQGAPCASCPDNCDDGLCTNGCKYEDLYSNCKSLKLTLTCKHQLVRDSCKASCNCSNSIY
UniProt Q9UBI1, whole entry, looked up: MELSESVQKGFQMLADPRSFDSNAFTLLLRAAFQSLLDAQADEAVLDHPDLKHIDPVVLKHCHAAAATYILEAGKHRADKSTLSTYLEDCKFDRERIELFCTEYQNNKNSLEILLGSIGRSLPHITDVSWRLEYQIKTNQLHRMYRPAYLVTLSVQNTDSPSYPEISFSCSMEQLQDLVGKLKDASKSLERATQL
UniProt Q8N668, whole entry, looked up: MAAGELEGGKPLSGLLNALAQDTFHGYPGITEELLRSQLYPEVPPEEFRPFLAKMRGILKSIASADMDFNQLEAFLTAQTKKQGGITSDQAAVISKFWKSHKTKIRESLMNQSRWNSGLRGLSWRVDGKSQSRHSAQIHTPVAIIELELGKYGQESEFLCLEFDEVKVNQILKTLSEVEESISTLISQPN
UniProt Q9BXS0: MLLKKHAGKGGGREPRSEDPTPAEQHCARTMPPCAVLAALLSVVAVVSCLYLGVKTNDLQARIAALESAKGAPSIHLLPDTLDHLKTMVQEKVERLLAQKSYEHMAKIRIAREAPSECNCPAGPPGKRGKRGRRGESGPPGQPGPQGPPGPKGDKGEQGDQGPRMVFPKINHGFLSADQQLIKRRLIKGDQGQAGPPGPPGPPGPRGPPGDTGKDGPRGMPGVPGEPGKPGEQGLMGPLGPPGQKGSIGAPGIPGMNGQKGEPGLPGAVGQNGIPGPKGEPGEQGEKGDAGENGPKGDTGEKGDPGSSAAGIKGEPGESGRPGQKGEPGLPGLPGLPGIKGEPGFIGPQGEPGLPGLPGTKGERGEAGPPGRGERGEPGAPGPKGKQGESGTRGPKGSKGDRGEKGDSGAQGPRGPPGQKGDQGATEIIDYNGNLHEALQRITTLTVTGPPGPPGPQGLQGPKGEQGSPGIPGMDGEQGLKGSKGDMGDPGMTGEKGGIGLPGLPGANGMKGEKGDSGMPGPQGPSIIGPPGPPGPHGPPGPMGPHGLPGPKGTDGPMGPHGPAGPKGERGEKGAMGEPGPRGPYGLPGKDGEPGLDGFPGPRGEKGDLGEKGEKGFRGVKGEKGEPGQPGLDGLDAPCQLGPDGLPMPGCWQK
UniProt Q9Y3A0: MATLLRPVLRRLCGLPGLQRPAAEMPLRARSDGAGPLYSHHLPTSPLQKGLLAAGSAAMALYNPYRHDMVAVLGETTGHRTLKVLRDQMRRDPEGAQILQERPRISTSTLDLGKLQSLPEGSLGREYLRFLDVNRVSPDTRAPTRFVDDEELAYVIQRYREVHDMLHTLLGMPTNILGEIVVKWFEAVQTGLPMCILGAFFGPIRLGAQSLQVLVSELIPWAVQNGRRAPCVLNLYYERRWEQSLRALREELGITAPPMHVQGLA
UniProt Q6UUV7: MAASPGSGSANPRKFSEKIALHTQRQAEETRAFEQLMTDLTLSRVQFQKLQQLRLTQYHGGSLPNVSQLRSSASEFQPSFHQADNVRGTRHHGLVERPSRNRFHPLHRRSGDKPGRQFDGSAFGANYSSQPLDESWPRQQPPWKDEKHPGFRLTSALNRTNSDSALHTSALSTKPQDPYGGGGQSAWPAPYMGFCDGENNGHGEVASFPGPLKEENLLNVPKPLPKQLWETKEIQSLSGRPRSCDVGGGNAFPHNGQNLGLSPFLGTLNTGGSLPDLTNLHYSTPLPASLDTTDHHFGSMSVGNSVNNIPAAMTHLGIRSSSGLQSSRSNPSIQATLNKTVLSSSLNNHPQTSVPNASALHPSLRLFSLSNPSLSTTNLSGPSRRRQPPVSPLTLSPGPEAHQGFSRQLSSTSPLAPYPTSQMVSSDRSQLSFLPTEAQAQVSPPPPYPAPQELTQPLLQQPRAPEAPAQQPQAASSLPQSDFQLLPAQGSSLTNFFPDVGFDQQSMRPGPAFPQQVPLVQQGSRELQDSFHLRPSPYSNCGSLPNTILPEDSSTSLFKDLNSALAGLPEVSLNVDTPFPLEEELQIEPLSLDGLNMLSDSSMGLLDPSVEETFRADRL
UniProt P00450: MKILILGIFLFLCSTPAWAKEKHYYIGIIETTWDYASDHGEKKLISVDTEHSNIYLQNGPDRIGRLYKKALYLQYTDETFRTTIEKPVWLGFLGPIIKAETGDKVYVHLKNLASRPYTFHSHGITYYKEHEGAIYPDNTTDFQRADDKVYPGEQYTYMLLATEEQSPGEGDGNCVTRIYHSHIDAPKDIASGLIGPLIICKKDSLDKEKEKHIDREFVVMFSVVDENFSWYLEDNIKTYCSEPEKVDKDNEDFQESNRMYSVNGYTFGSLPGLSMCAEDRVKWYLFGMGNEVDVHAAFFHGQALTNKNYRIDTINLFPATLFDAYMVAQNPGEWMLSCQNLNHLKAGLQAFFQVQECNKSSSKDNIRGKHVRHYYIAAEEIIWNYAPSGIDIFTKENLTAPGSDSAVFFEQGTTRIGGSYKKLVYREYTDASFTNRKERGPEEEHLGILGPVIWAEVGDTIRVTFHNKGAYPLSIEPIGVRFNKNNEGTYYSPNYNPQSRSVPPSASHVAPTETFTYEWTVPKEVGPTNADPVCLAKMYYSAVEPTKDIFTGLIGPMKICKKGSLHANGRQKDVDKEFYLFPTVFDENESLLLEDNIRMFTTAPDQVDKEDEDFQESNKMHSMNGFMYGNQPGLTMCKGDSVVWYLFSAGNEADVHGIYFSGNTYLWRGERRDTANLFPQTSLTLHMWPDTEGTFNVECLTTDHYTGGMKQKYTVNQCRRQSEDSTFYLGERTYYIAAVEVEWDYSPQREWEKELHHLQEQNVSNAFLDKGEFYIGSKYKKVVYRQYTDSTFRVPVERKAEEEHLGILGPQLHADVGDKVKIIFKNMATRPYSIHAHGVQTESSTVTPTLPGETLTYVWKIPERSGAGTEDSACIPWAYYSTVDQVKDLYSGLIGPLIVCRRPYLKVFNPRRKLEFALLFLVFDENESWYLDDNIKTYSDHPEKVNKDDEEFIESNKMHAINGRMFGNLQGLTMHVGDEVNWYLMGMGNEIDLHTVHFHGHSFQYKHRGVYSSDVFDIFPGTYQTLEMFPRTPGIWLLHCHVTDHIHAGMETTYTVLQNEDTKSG

What was measured:
Assay in all cases: log2 fold change, soluble protein after heating vs DMSO (PISA); higher = thermal stabilisation; K562 cells, 10 uM, 30 min; active = over 0.2 and 3.5 SD of the protein, either way, in both replicates (recomputed)
[1] = compound: C/C(=N\NC(=O)C1=CC(=CC=C1)S(=O)(=O)N2CCOCC2)/C3=C(C=CC(=C3)Cl)O
Summary of the method: (§1)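 K562 cells at 2×10^6 cells/mL were treated with 10 μM compound for 30 min. Aliquots were heated for 3 min across 48°C-58°C, pooled, and extracted in PBS with 0.5% NP-40 at 4°C; soluble protein was the supernatant after 21,000xg for 90 min. Soluble protein was quantified by TMTpro 16plex LC-MS/MS with channel sums equalised, and reported as log2 fold change in thermal stability against DMSO controls, with values from duplicates.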

[2] = compound: C1=CC2=C(C=CC(=C2)/C=C\3/C(=O)NC(=NCC4=CC=CS4)S3)N=C1
Summary of the method: as §1

[3] = compound: C1=CC=C(C=C1)C2=NC(=C(N2)C3=CC=NC=C3)C4=CC(=C(C=C4)Cl)O
Summary of the method: as §1

[4] = compound: C1=CC=C2C(=C1)C3=NNC4=CC=CC(=C43)C2=O
Summary of the method: as §1

[5] = compound: C1=CC(=C(C=C1Cl)C2=NC3=NC=CN=C3C(=N2)NC4=CC=NC=C4)F
Summary of the method: as §1

[6] = compound: C1CCN(C1)C(=O)NC2=CC=CC(=C2)NC3=NC=C(C(=N3)NCCC4=CN=CN4)Br
Summary of the method: as §1

[7] = compound: C1CN(CCC1(CC2=CC=C(C=C2)Cl)N)C3=NC=NC4=C3C=CN4
Summary of the method: as §1

[8] = compound: C1=CC2=NC=CN=C2C=C1/C=C/3\C(=O)NC(=O)S3
Summary of the method: as §1

erlotinib = compound: C#Cc1cccc(Nc2ncnc3cc(OCCOC)c(OCCOC)cc23)c1 [erlotinib]
Summary of the method: as §1

[9] = compound: C1=CC(=CC=C1C2=NC3=C(N2)C=C(C=C3)C(=O)N)OC4=CC=C(C=C4)Cl
Summary of the method: as §1

Measured: log2 fold change

COP1 (UniProt Q8NHY2)
inactive: [1] 0.13 | [2] -0.213 | [3] -0.003 | [4] -0.246

CSNK1G2 (UniProt P78368)
inactive: [1] -0.164 | [5] -0.112 | [2] -0.093 | [4] 0.004 | [6] -0.125 | [7] 0.066

CORO6 isoform 5 (UniProt Q6QEF8)
inactive: [1] 0.001 | [5] 0.027 | [2] 0.124 | [4] 0.295 | [6] -0.242 | [7] -0.018

COQ10B (UniProt Q9H8M1)
inactive: [5] 0.023 | [8] 0.03 | [3] -0.167

CPN1 (UniProt P15169)
inactive: erlotinib -0.161 | [9] 0.064 | [8] 0.081 | [3] -0.035 | [6] -0.007 | [7] -0.11

CSNK1A1 isoform 3 (UniProt P48729)
inactive: [8] 0.111

CSNK1G1 (UniProt Q9HCP0)
inactive: erlotinib 0.056 | [5] -0.077 | [9] 0.068 | [8] 0.09 | [3] 0.14

CS (UniProt F8VU34)
inactive: [8] 0.06

CRISP3 isoform 3 (UniProt P54108)
inactive: [8] -0.198

COMMD3 (UniProt Q9UBI1)
inactive: [1] 0.054 | [2] 0.18 | [8] 0.102 | [3] 0.058 | [4] -0.097 | [6] -0.085 | [7] -0.002

COMMD3-BMI1 (UniProt R4GMX3)
inactive: [1] -0.043 | [5] -0.051 | [2] 0.077 | [4] -0.169 | [6] -0.191 | [7] 0.095

CPEB4 (UniProt Q17RY0)
inactive: [1] -0.026 | [2] -0.01 | [8] 0.032 | [3] -0.075 | [4] -0.024 | [6] -0.056 | [7] 0.027

COMMD1 (UniProt Q8N668)
inactive: erlotinib -0.136 | [5] -0.241 | [9] 0.15 | [8] -0.088 | [3] 0.066 | [6] 0.037 | [7] -0.083

COL25A1 (UniProt Q9BXS0)
inactive: erlotinib -0.211 | [5] 0.301 | [9] 0.19 | [8] -0.178

COQ4 (UniProt Q9Y3A0)
inactive: [3] 0.261

CRTC3 (UniProt Q6UUV7)
inactive: [5] 0.04 | [8] 0.094 | [3] -0.146 | [6] 0.02 | [7] 0.075

CP (UniProt P00450)
inactive: [8] -0.395 | [3] 0.158

Taken from the entries so far (five entries):
COMMD1 (UniProt Q8N668)
inactive: erlotinib -0.136 | [5] -0.241 | [9] 0.15 | [8] -0.088 | [3] 0.066 | [6] 0.037 | [7] -0.083

COL25A1 (UniProt Q9BXS0)
inactive: erlotinib -0.211 | [5] 0.301 | [9] 0.19 | [8] -0.178

COQ4 (UniProt Q9Y3A0)
inactive: [3] 0.261

CRTC3 (UniProt Q6UUV7)
inactive: [5] 0.04 | [8] 0.094 | [3] -0.146 | [6] 0.02 | [7] 0.075

CP (UniProt P00450)
inactive: [8] -0.395 | [3] 0.158
